Some of the results follow.
Key:
Test in all cases: log2 fold change, soluble protein after heating vs DMSO (PISA); higher = thermal stabilisation; K562 lysate, 10 uM; active = over 0.2 and 3.5 SD of the protein, either way, in both replicates (recomputed)
erlotinib = compound: C#Cc1cccc(Nc2ncnc3cc(OCCOC)c(OCCOC)cc23)c1 [erlotinib]
In short: (§1)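 Dounce homogenisation of K562 pellets in PBS pH 7.4 with 1 mM MgCl2 produced a crude extract, used at 1 mg/mL protein. Exposure to 10 μM compound lasted 30 min, and aliquots were then heated for 3 min across 48°C-58°C, pooled and brought to 0.5% NP-40 at 4°C. The supernatant after 21,000xg for 90 min was quantified by TMTpro 16plex LC-MS/MS with channel sums equalised. Duplicate values are given as log-two fold change in thermal stability relative to solvent controls.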

Sequences of proteins named here, by UniProt entry; tags and fusion partners are left off. A change or cut given only in a name is not applied to a line headed by its entry.
UniProt Q6NXT6: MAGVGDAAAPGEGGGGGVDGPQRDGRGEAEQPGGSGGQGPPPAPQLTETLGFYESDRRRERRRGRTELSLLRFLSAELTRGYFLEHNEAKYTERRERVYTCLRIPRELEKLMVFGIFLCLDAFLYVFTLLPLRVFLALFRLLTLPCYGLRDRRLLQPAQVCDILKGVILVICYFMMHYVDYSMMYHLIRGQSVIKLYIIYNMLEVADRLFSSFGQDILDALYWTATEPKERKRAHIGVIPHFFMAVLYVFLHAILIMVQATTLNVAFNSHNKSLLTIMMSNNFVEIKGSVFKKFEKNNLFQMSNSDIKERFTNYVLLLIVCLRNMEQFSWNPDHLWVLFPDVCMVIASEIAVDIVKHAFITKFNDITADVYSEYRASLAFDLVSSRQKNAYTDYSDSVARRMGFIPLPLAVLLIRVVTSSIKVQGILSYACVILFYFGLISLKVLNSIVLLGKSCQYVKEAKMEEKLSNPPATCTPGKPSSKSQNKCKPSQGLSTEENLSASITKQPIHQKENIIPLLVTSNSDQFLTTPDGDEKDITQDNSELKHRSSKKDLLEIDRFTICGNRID
UniProt Q0IIM8: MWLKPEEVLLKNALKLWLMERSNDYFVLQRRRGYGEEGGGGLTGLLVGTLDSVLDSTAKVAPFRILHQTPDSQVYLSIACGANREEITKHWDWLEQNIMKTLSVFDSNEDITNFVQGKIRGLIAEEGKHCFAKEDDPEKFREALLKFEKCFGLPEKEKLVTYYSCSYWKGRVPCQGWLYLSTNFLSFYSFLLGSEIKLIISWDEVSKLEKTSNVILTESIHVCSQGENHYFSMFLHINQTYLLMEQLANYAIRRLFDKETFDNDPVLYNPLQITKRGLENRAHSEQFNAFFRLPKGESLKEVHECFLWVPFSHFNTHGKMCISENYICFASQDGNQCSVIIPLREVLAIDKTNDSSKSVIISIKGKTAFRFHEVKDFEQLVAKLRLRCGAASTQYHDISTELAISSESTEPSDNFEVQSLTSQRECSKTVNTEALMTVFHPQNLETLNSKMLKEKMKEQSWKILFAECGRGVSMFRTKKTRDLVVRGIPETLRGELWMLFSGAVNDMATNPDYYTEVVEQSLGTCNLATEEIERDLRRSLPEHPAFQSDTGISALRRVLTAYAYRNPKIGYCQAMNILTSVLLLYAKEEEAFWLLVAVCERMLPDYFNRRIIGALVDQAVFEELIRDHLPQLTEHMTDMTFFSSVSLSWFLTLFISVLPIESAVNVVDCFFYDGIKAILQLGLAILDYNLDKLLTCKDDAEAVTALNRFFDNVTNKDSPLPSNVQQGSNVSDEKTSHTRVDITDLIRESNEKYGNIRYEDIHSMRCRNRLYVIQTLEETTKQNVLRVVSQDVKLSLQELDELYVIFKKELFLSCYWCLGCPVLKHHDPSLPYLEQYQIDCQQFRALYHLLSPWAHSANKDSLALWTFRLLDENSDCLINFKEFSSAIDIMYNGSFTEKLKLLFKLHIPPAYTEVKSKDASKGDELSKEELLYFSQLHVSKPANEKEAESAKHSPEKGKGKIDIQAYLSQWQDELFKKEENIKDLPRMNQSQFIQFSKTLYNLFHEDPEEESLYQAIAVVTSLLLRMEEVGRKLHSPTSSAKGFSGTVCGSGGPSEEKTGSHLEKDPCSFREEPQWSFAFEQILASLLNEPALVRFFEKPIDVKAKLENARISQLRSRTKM
UniProt P28347, whole entry, looked up: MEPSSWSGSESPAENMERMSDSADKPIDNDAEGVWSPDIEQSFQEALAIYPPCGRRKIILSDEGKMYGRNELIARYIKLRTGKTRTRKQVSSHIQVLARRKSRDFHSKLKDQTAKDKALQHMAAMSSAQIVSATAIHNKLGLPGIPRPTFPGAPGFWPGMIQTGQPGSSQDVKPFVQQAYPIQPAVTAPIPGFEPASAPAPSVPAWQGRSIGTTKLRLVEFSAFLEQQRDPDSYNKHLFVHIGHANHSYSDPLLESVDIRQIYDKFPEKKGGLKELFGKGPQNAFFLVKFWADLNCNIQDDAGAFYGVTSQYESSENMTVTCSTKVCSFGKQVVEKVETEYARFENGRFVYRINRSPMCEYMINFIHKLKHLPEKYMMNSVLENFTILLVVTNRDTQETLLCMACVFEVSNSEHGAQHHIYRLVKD
UniProt Q13428: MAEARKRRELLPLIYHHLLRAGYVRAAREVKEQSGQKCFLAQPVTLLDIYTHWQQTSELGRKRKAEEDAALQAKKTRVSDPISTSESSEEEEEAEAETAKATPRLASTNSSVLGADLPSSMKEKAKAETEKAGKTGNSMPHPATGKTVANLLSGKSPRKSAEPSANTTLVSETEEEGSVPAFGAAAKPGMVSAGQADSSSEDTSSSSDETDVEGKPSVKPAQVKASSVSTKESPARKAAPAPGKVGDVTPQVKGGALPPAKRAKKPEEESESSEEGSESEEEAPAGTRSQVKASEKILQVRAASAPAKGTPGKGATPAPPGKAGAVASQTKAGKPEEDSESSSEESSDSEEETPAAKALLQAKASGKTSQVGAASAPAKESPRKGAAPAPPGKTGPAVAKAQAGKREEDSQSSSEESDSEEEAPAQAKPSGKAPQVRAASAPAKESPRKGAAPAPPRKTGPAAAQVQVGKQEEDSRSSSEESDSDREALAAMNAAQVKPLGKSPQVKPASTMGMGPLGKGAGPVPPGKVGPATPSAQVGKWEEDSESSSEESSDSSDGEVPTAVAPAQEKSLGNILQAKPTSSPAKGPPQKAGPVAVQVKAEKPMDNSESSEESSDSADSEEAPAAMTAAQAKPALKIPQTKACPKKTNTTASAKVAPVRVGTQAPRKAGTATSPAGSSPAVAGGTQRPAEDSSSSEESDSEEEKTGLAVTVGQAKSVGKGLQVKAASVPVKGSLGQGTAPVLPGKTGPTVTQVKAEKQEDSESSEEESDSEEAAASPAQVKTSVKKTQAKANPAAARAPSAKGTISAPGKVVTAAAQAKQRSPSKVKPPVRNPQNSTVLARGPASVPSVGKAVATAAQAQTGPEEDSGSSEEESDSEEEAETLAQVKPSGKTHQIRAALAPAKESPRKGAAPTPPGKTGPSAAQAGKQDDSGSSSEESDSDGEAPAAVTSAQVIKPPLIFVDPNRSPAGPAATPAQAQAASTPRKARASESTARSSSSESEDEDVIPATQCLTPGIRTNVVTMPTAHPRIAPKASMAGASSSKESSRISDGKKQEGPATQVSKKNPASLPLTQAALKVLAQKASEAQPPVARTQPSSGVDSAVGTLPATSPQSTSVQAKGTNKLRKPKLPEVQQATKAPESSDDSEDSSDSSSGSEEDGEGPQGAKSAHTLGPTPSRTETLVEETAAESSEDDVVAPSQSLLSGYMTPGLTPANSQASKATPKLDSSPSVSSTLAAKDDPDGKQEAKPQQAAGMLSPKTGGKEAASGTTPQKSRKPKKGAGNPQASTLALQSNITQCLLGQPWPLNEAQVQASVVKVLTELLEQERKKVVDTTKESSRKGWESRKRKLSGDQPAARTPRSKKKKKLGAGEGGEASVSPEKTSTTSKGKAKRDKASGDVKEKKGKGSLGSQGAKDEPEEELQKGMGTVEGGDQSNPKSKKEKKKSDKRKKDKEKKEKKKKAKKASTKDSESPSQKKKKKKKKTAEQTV
UniProt O75347: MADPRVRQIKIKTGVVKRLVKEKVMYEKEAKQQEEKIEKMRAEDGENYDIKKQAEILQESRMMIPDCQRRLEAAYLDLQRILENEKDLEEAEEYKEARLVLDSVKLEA
UniProt Q8N4U5: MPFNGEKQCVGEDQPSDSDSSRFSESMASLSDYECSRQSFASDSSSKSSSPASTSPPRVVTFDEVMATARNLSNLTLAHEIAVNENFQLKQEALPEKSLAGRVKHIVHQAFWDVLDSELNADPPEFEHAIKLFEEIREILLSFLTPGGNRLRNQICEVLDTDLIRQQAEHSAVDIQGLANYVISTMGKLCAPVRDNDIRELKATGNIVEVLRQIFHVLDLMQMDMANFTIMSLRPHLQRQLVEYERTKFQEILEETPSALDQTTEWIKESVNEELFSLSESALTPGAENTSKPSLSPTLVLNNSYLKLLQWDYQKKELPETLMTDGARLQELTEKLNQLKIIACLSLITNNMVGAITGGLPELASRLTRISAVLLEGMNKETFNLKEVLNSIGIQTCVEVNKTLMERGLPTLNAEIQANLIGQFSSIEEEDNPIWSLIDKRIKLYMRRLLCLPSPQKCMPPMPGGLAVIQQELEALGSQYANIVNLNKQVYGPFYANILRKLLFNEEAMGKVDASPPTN
UniProt Q9NUY8: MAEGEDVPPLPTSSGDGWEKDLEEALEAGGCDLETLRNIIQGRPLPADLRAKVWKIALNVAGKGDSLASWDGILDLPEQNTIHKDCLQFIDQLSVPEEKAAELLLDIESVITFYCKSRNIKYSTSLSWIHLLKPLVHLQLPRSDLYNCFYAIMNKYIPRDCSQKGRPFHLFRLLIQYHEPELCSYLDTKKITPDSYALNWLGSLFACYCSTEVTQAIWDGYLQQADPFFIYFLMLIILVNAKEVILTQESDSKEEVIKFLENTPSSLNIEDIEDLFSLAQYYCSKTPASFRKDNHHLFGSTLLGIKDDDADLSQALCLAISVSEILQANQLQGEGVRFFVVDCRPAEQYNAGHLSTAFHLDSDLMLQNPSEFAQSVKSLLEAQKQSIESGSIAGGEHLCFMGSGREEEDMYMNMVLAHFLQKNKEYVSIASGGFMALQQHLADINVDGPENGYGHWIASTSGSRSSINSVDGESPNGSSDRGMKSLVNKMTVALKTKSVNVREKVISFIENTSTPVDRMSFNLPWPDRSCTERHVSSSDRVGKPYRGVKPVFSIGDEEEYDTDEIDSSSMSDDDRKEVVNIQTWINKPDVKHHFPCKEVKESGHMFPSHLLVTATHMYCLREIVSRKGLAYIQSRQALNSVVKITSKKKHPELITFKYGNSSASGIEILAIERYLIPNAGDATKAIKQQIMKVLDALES
UniProt Q9UK61: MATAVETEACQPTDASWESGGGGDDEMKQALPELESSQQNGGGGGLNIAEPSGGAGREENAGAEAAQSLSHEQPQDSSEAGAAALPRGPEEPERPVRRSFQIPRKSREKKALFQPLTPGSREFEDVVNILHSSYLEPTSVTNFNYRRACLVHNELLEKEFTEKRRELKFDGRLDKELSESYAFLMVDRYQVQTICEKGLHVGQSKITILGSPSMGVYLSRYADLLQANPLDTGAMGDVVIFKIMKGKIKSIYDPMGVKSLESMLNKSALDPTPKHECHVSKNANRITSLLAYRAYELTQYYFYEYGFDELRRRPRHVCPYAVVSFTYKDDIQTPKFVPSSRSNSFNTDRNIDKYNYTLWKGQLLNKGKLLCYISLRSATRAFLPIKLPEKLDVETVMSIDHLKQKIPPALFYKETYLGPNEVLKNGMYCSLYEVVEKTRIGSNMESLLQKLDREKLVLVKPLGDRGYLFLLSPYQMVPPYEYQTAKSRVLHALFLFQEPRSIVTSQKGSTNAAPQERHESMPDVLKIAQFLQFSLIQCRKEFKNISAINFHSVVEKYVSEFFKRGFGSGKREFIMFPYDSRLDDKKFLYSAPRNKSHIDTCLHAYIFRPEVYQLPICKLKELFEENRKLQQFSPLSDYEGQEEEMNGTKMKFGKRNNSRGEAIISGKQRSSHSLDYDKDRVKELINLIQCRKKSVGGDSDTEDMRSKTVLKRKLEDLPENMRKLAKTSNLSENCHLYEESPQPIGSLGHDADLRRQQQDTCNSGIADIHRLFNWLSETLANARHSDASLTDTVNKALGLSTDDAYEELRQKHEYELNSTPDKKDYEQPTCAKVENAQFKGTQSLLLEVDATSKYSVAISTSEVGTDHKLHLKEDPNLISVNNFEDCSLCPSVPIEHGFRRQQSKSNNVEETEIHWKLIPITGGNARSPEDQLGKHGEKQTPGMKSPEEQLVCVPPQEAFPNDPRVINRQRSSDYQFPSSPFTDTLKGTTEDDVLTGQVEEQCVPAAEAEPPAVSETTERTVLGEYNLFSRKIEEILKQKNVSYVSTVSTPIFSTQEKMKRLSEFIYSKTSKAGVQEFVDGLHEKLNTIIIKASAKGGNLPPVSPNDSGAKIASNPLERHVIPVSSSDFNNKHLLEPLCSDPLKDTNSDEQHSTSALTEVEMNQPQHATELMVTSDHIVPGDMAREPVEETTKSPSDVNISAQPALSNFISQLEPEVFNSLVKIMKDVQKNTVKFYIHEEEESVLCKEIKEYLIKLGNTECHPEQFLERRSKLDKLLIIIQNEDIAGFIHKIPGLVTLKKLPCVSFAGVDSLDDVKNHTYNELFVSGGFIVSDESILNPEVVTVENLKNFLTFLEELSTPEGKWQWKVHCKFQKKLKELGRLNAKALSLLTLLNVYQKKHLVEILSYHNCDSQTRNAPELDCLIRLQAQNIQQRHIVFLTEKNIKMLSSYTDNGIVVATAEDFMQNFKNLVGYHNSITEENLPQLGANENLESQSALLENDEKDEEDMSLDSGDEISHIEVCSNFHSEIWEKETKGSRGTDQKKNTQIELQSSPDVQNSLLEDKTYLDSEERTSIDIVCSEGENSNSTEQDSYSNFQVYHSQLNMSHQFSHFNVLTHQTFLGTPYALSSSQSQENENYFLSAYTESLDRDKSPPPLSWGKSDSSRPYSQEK

[1] = compound: C/C(=N\NC(=O)C1=CC(=CC=C1)S(=O)(=O)N2CCOCC2)/C3=C(C=CC(=C3)Cl)O
In short: as §1

[2] = compound: C1=CC(=CC=C1C2=NC3=C(N2)C=C(C=C3)C(=O)N)OC4=CC=C(C=C4)Cl
In short: as §1

[3] = compound: C1=CC2=C(C=CC(=C2)/C=C\3/C(=O)NC(=NCC4=CC=CS4)S3)N=C1
In short: as §1

[4] = compound: C1=CC2=NC=CN=C2C=C1/C=C/3\C(=O)NC(=O)S3
In short: as §1

[5] = compound: C1=CC=C(C=C1)C2=NC(=C(N2)C3=CC=NC=C3)C4=CC(=C(C=C4)Cl)O
In short: as §1

[6] = compound: C1=CC=C2C(=C1)C3=NNC4=CC=CC(=C43)C2=O
In short: as §1

[7] = compound: C1CCN(C1)C(=O)NC2=CC=CC(=C2)NC3=NC=C(C(=N3)NCCC4=CN=CN4)Br
In short: as §1

[8] = compound: C1CN(CCC1(CC2=CC=C(C=C2)Cl)N)C3=NC=NC4=C3C=CN4
In short: as §1

IRAK-1-4 Inhibitor I = compound: C1COCCN1CCN2C3=CC=CC=C3N=C2NC(=O)C4=CC(=CC=C4)[N+](=O)[O-] [IRAK-1-4 Inhibitor I]
In short: as §1

Measured: log2 fold change

TAPT1 (UniProt Q6NXT6)
inactive: erlotinib 0 | [1] -0.092 | [2] 0.068 | [3] -0.038 | [4] -0.001 | [5] -0.059 | [6] -0.039 | [7] -0.059 | [8] 0.01 | IRAK-1-4 Inhibitor I 0.002

TBC1D8B (UniProt Q0IIM8)
inactive: erlotinib -0.023 | [1] -0.376 | [2] 0.036 | [3] -0.041 | [4] 0 | [5] 0.01 | [6] 0.01 | [7] 0.017 | [8] 0.063 | IRAK-1-4 Inhibitor I 0.001

TBC1D14 (UniProt Q9P2M4)
inactive: erlotinib 0 | [1] -0.141 | [2] -0.01 | [3] 0.067 | [4] -0.069 | [5] -0.074 | [6] -0.052 | [7] -0.003 | [8] 0.108 | IRAK-1-4 Inhibitor I 0.053

TENT5C (UniProt Q5VWP2)
inactive: erlotinib -0.01 | [1] -0.11 | [2] -0.021 | [3] -0.036 | [4] -0.078 | [5] 0.009 | [6] -0.063 | [7] -0.004 | [8] 0.011 | IRAK-1-4 Inhibitor I 0.015

TDRD15 (UniProt B5MCY1)
inactive: erlotinib -0.096 | [1] -0.026 | [2] 0.021 | [3] -0.016 | [5] 0.025 | [6] -0.064 | [7] -0.056 | [8] 0.026 | IRAK-1-4 Inhibitor I -0.013

TFDP2 (UniProt Q14188)
inactive: erlotinib 0.066 | [1] -0.062 | [2] -0.02 | [3] 0.06 | [4] -0.153 | [5] 0.265 | [6] -0.05 | IRAK-1-4 Inhibitor I 0.091

TATDN1 isoform 2 (UniProt Q6P1N9)
inactive: erlotinib -0.06 | [1] 0.049 | [2] 0.076 | [3] -0.038 | [4] -0.004 | [5] 0.022 | [6] -0.036 | IRAK-1-4 Inhibitor I 0.061

Pulled one by one from the entries so far (2):
TBC1D14 (UniProt Q9P2M4)
inactive: erlotinib 0 | [1] -0.141 | [2] -0.01 | [3] 0.067 | [4] -0.069 | [5] -0.074 | [6] -0.052 | [7] -0.003 | [8] 0.108 | IRAK-1-4 Inhibitor I 0.053

TDRD15 (UniProt B5MCY1)
inactive: erlotinib -0.096 | [1] -0.026 | [2] 0.021 | [3] -0.016 | [5] 0.025 | [6] -0.064 | [7] -0.056 | [8] 0.026 | IRAK-1-4 Inhibitor I -0.013

(continued)

TBC1D2B (UniProt Q9UPU7)
inactive: erlotinib -0.005 | [1] -0.028 | [2] 0.098 | [3] 0.03 | [4] -0.053 | [5] 0.042 | [6] -0.111 | [7] -0.031 | [8] -0.024 | IRAK-1-4 Inhibitor I -0.075

TFAP4 (UniProt Q01664)
inactive: erlotinib -0.063 | [1] -0.042 | [2] 0.017 | [3] -0.025 | [4] 0.018 | [5] -0.09 | [6] 0.055 | [7] 0.135 | [8] -0.016 | IRAK-1-4 Inhibitor I -0.061

TBC1D9B isoform 2 (UniProt Q66K14)
inactive: erlotinib 0.086 | [1] -0.011 | [2] 0.074 | [3] -0.061 | [4] -0.037 | [5] -0.015 | [6] -0.013 | [7] -0.031 | [8] 0.024 | IRAK-1-4 Inhibitor I 0.105

TAGLN3 (UniProt Q9UI15)
inactive: erlotinib -0.016 | [1] 0.036 | [2] 0.101 | [3] -0.064 | [6] -0.057 | [7] -0.023 | [8] 0.019

TBC1D12 (UniProt O60347)
inactive: erlotinib 0.052 | [1] 0.071 | [2] 0.037 | [3] -0.044 | [5] 0.053 | [6] -0.079 | [7] -0.155 | [8] 0.127 | IRAK-1-4 Inhibitor I 0.047

TEAD1 (UniProt P28347)
inactive: erlotinib 0.141 | [1] 0.014 | [2] -0.302 | [3] 0.128 | [4] -0.016 | [6] 0.117 | [7] -0.008 | [8] 0.129

TCOF1 isoform 3 (UniProt Q13428)
inactive: erlotinib -0.067 | [2] -0.058 | [4] 0.01

TBCA (UniProt O75347)
inactive: erlotinib -0.093 | [1] -0.048 | [2] -0.084 | [3] -0.031 | [4] 0.022 | [5] -0.021 | [6] 0.016 | [7] 0.043 | [8] -0.044 | IRAK-1-4 Inhibitor I -0.014

TBL3 (UniProt Q12788)
inactive: erlotinib 0.082 | [1] -0.001 | [2] -0.071 | [3] 0.037 | [4] 0.012 | [5] 0.017 | [6] 0.043 | [7] 0.074 | [8] -0.016 | IRAK-1-4 Inhibitor I 0.01

TCP11L2 (UniProt Q8N4U5)
inactive: erlotinib 0.213 | [1] 0.15 | [2] -0.049 | [3] 0.074 | [5] 0.149 | [6] 0.068 | [7] 0.017 | [8] 0 | IRAK-1-4 Inhibitor I -0.053

TDRD7 (UniProt Q8NHU6)
inactive: erlotinib 0.027 | [1] 0.084 | [2] 0.043 | [3] 0.019 | [4] 0.019 | [5] 0.024 | [6] -0.015 | [7] -0.005 | [8] 0.055 | IRAK-1-4 Inhibitor I -0.006

TBC1D23 (UniProt Q9NUY8)
inactive: erlotinib 0.003 | [1] -0.01 | [2] 0.017 | [3] 0.022 | [4] -0.015 | [5] 0.011 | [6] -0.018 | [7] -0.018 | [8] -0.001 | IRAK-1-4 Inhibitor I 0

TBC1D25 (UniProt Q3MII6)
inactive: erlotinib 0.102 | [1] 0.023 | [2] 0.151 | [3] -0.126 | [5] -0.071 | [6] -0.133 | [7] -0.117 | [8] 0.101 | IRAK-1-4 Inhibitor I 0.006

TBC1D24 (UniProt Q9ULP9)
inactive: erlotinib -0.039 | [1] -0.063 | [2] 0.013 | [3] -0.005 | [4] 0.025 | [5] 0.013 | [6] -0.055 | [7] 0.001 | [8] 0.002 | IRAK-1-4 Inhibitor I 0.019

TATDN1 (UniProt Q6P1N9)
inactive: erlotinib -0.042 | [1] 0.019 | [2] 0.004 | [3] 0 | [4] -0.014 | [5] 0.005 | [6] -0.006 | [7] -0.014 | [8] -0.043 | IRAK-1-4 Inhibitor I -0.023

TASOR (UniProt Q9UK61)
inactive: erlotinib 0.076 | [1] -0.04 | [2] -0.015 | [3] 0.021 | [6] 0.005 | [7] -0.047 | [8] 0.024

TAPBP isoform 3 (UniProt O15533)
inactive: erlotinib 0.026 | [1] -0.067 | [2] 0.187 | [3] -0.078 | [4] 0.142 | [6] 0.075 | [7] 0.011 | [8] 0.011

TCOF1 isoform 4 (UniProt Q13428)
inactive: erlotinib 0 | [1] 0.026 | [2] 0.034 | [3] -0.013 | [4] -0.069 | [5] 0.012 | [6] 0 | [7] 0.001 | [8] 0.003 | IRAK-1-4 Inhibitor I 0.01

TFB2M (UniProt Q9H5Q4)
inactive: erlotinib 0.058 | [1] 0.205 | [2] -0.015 | [3] 0.001 | [4] 0.019 | [5] -0.015 | [6] -0.039 | [7] 0.001 | [8] -0.004 | IRAK-1-4 Inhibitor I 0.046

TAOK1 (UniProt Q7L7X3)
inactive: erlotinib -0.005 | [1] -0.018 | [2] 0.021 | [3] -0.003 | [4] 0.026 | [5] 0.02 | [6] 0.03 | [7] -0.021 | [8] 0.041 | IRAK-1-4 Inhibitor I -0.018

TBC1D22B (UniProt Q9NU19)
inactive: erlotinib -0.023 | [1] -0.048 | [2] 0.037 | [3] 0.016 | [4] -0.018 | [5] -0.028 | [6] -0.14 | [7] -0.045 | [8] 0.054 | IRAK-1-4 Inhibitor I 0.013

TFPT (UniProt P0C1Z6)
inactive: erlotinib -0.078 | [2] 0.037 | [4] -0.186

TBCD, A0A0J9YWI5
inactive: [7] 0.177 | [8] 0.1

TBCK (UniProt Q8TEA7)
inactive: erlotinib -0.001 | [2] -0.01 | [4] 0.059 | [5] 0.009 | [7] 0.066 | [8] 0.181 | IRAK-1-4 Inhibitor I 0.044

Reference: the supplement of paper PMC10849652
